According to PubChem BioAssay AID330 (DTP/NCI, 2004):
The list does not hold the whole screen: it gathers tests that were run many times, whatever their T/C, doses with no T/C, and many T/C values between a quarter and a half above the control. Other doses and runs of a compound stand elsewhere. T/C: endpoint of the treated group in % of that of the vehicle group. Some entries give survivors of the animals treated and no T/C: the source holds a T/C of zero for them, seemingly a mark for toxic or unscored doses. Some doses without a T/C left all or most animals alive at the check, yet need not have been tolerated: survival well below the control is almost never listed, so the zero probably covers shortened survival too. Survivors were counted at the toxicity check, usually on the fifth day, unless a day is given; later deaths do not show. Schedules are NCI's codes, taken here to give the interval after Q, in days (D) or hours (H), and the number of doses after X. Some entries were tested several times; the results are listed from low to high. For survival time, the PubChem record calls one and a half times the control and up active, and a quarter to a half above the control has no call in these data; cut-offs in other NCI protocols can differ. Some T/C values carry the count of animals alive at the toxicity check (mostly the fifth day); without a count, all were alive then.

System: P388 leukemia ip, CD2F1 mice, survival T/C
Test: NCI In Vivo Anticancer Drug Screen. Data for tumor model P388 Leukemia (intraperitoneal) in CD2F1 (CDF1) mice
Details: T/C endpoint: median survival time, higher T/C = longer survival
[1] = dose: 50.0 mg/kg/injection, schedule: Q04DX003 (ip), vehicle: saline
[2] = dose: 12.5 mg/kg/injection, schedule: Q01DX001 (ip), vehicle: water

`CC[C@](O)(C(=O)O)c1cc2n(c(=O)c1CO)Cc1cc3ccccc3nc1-2` was tested, and the T/C (dose: 1.0 mg/kg/injection, schedule: Q01DX009 (ip), vehicle: saline with Tween-80) was 127 % of control, the T/C (dose: 1.0 mg/kg/injection, schedule: Q01DX009 (ip), vehicle: water) was 137 % of control and the T/C (dose: 2.0 mg/kg/injection, schedule: Q04DX003 (ip), vehicle: saline) was 125 % of control. The T/C (dose: 2.5 mg/kg/injection, schedule: Q04DX003 (ip), vehicle: water) was 126 % of control, the T/C (dose: 3.13 mg/kg/injection, schedule: Q04DX003 (ip), vehicle: other) was 126 and 136 % of control and the T/C (dose: 4.0 mg/kg/injection, schedule: Q04DX003 (ip), vehicle: saline, evaluated on day 5) was 100 and 104 % of control. The T/C (dose: 4.0 mg/kg/injection, schedule: Q04DX003 (ip), vehicle: saline, evaluated on day 30) was 100 and 104 % of control, the T/C (dose: 4.0 mg/kg/injection, schedule: Q04DX003 (ip), vehicle: saline, evaluated on day 35) was 124 % of control and the T/C (dose: 5.0 mg/kg/injection, schedule: Q04DX003 (ip), vehicle: water) was 140 % of control. For the same compound, the T/C (dose: 6.48 mg/kg/injection, schedule: Q04DX003 (ip), vehicle: saline) was 119, 127, 135, 154 % of control, the T/C (dose: 7.78 mg/kg/injection, schedule: Q04DX003 (ip), vehicle: saline) was 146 % of control and the survivor count (dose: 8.0 mg/kg/injection, schedule: Q01DX009 (ip), vehicle: saline sonified) was 6 of 6. The T/C (dose: 8.0 mg/kg/injection, schedule: Q04DX003 (ip), vehicle: saline, evaluated on day 5) was 94, 108, 128 % of control, the T/C (dose: 8.0 mg/kg/injection, schedule: Q04DX003 (ip), vehicle: saline, evaluated on day 30) was 94 and 108 % of control and the T/C (dose: 8.0 mg/kg/injection, schedule: Q04DX003 (ip), vehicle: saline, evaluated on day 35) was 150 % of control. The T/C (dose: 8.0 mg/kg/injection, schedule: Q04DX003 (ip), vehicle: saline, evaluated on day 60) was 128 % of control, the T/C (dose: 9.72 mg/kg/injection, schedule: Q04DX002 (ip), vehicle: saline) was 138 % of control and the T/C (dose: 10.0 mg/kg/injection, schedule: Q04DX003 (ip), vehicle: water) was 141 % of control. The T/C (dose: 10.8 mg/kg/injection, schedule: Q04DX003 (ip), vehicle: saline) was 136, 150, 152, 157 % of control, the T/C (dose: 12.5 mg/kg/injection, schedule: Q04DX003 (ip), vehicle: water) was 144 % of control and the survivor count (dose: 16.0 mg/kg/injection, schedule: Q01DX009 (ip), vehicle: saline sonified) was 4 of 6. For the same compound, the T/C (dose: 16.0 mg/kg/injection, schedule: Q04DX003 (ip), vehicle: saline, evaluated on day 5) was 81, 147, 159 % of control, the T/C (dose: 16.0 mg/kg/injection, schedule: Q04DX003 (ip), vehicle: saline, evaluated on day 30) was 147 % of control and the T/C (dose: 16.0 mg/kg/injection, schedule: Q04DX003 (ip), vehicle: saline, evaluated on day 35) was 187 % of control. The T/C (dose: 16.0 mg/kg/injection, schedule: Q04DX003 (ip), vehicle: saline, evaluated on day 60) was 159 % of control, the survivor count (dose: 16.0 mg/kg/injection, schedule: Q04DX003 (ip), vehicle: saline) was 10 of 10 and the T/C (dose: 18.0 mg/kg/injection, schedule: Q04DX003 (ip), vehicle: saline) was 162, 179, 185, 192 % of control. The T/C (dose: 30.0 mg/kg/injection, schedule: Q04DX003 (ip), vehicle: saline) was 105 [7 of 8 alive], 195, 207, 212 % of control, the T/C (dose: 32.0 mg/kg/injection, schedule: Q04DX003 (ip), vehicle: saline, evaluated on day 5) was 77, 207, 213 % of control and the T/C (dose: 32.0 mg/kg/injection, schedule: Q04DX003 (ip), vehicle: saline, evaluated on day 30) was 207 % of control. For the same compound, the T/C (dose: 32.0 mg/kg/injection, schedule: Q04DX003 (ip), vehicle: saline, evaluated on day 35) was 99 % of control [5 of 6 alive], the T/C (dose: 32.0 mg/kg/injection, schedule: Q04DX003 (ip), vehicle: saline, evaluated on day 60) was 213 % of control and the survivor count (dose: 32.0 mg/kg/injection, schedule: Q04DX003 (ip), vehicle: saline) was 10 of 10. The survivor count (dose: 50.0 mg/kg/injection, schedule: Q04DX003 (ip), vehicle: other) was 3 of 6 and 6 of 6, the T/C [1] was 95, 136, 163 % of control and the survivor count [1] was 6 of 8. The survivor count (dose: 50.0 mg/kg/injection, schedule: Q04DX003 (ip), vehicle: water) was 2 of 6, the T/C (dose: 64.0 mg/kg/injection, schedule: Q04DX003 (ip), vehicle: saline, evaluated on day 5) was 41, 103, 208 % of control and the T/C (dose: 64.0 mg/kg/injection, schedule: Q04DX003 (ip), vehicle: saline, evaluated on day 30) was 103 % of control [9 of 10 alive]. For the same compound, the T/C (dose: 64.0 mg/kg/injection, schedule: Q04DX003 (ip), vehicle: saline, evaluated on day 60) was 208 % of control [9 of 10 alive], the survivor count (dose: 64.0 mg/kg/injection, schedule: Q04DX003 (ip), vehicle: saline) was 2 of 6 and 4 of 10 and the survivor count (dose: 128.0 mg/kg/injection, schedule: Q04DX003 (ip), vehicle: saline) was 9 of 10.

For `CNc1cc(C)c2ccc(N(C)C)cc2n1`, the survivor count (dose: 120.0 mg/kg/injection, schedule: Q01DX005 (ip), vehicle: Klucel (hydroxypropylcellulose) (HPC)) was 0 of 6 and the survivor count (dose: 240.0 mg/kg/injection, schedule: Q01DX005 (ip), vehicle: Klucel (hydroxypropylcellulose) (HPC)) was 0 of 6.

In the case of `CCOC(=O)/C=C(\C)Nc1ccccc1N`, the survivor count (dose: 400.0 mg/kg/injection, schedule: Q01DX001 (ip), vehicle: saline with Tween-80) is reported as 0 of 6.

In the case of `CCN(CC)CCN(C(=O)C1c2ccccc2Oc2ccccc21)C1CCCCC1`, the survivor count (dose: 100.0 mg/kg/injection, schedule: Q01DX005 (ip), vehicle: Klucel (hydroxypropylcellulose) (HPC)) is reported as 0 of 5 and the survivor count (dose: 200.0 mg/kg/injection, schedule: Q01DX005 (ip), vehicle: Klucel (hydroxypropylcellulose) (HPC)) is reported as 0 of 5.

With `CCC1=C[C@@H]2C[C@](C(=O)OC)(c3cc4c(cc3OC)N(C)[C@H]3[C@@](O)(C(=O)NC)[C@H](OC(C)=O)[C@]5(CC)C=CCN6CC[C@]43[C@@H]65)c3[nH]c4ccccc4c3CCN(C1)[C@@H]2O` the T/C (dose: 0.78 mg/kg/injection, schedule: Q01DX001 (ip), vehicle: water) was 130 % of control, the T/C (dose: 1.56 mg/kg/injection, schedule: Q01DX001 (ip), vehicle: water) was 133 % of control and the survivor count (dose: 6.25 mg/kg/injection, schedule: Q01DX001 (ip), vehicle: water) was 1 of 3 and 2 of 3. For the same compound, the T/C [2] was 127 % of control [2 of 3 alive], the survivor count [2] was 1 of 3 and the survivor count (dose: 25.0 mg/kg/injection, schedule: Q01DX001 (ip), vehicle: water) was 0 of 3, 1 of 3, 2 of 3. For the same compound, the survivor count (dose: 50.0 mg/kg/injection, schedule: Q01DX001 (ip), vehicle: water) was 0 of 3, the survivor count (dose: 100.0 mg/kg/injection, schedule: Q01DX001 (ip), vehicle: water) was 0 of 3 and the survivor count (dose: 200.0 mg/kg/injection, schedule: Q01DX001 (ip), vehicle: water) was 0 of 3. For the same compound, the survivor count (dose: 400.0 mg/kg/injection, schedule: Q01DX001 (ip), vehicle: water) was 0 of 3.

For `O=C(O)C1SCSC1C(=O)O` (stereo not drawn), the survivor count (dose: 400.0 mg/kg/injection, schedule: Q01DX009 (ip), vehicle: other) was 0 of 6.

`CCCC(O)CN` (stereo not drawn) was tested, and the survivor count (dose: 400.0 mg/kg/injection, schedule: Q04DX003 (ip), vehicle: saline) was 5 of 6.

For `CCn1c2ccccc2c2cc(NC(=S)NC(=O)c3cccs3)ccc21`, the survivor count (dose: 50.0 mg/kg/injection, schedule: Q01DX005 (ip), vehicle: saline with Tween-80) was 5 of 5.

With `C[As](C)SCC1OC(n2ccc(=O)[nH]c2=O)C2OC(C)(C)OC12` (stereo not drawn) the survivor count (dose: 200.0 mg/kg/injection, schedule: Q01DX009 (ip), vehicle: distilled water + Tween-80) was 4 of 6.

In the case of `Cc1ccc(S(=O)(=O)c2ccc(Sc3cccc[n+]3[O-])c3nonc23)cc1`, the T/C (dose: 50.0 mg/kg/injection, schedule: Q01DX009 (ip), vehicle: suspension in saline) is reported as 130 % of control and the T/C (dose: 100.0 mg/kg/injection, schedule: Q01DX009 (ip), vehicle: suspension in saline) is reported as 134 % of control [5 of 6 alive].
